Results are given in words; binding and its absence hold for the method and conditions named. Binding seen in cells or lysates may run through a third protein. Some results given as binding are weak or reduced against the parent protein; the word gives no strength.
Molecular target: GST fusion of domain 3 of generic RON2 (amino acids 1293-1345) (Toxoplasma gondii) (UniProt B6KV60)
Test: pull-down; Glutathione-sepharose beads prebound with 0.5 µM GST, GST-gD3 or GST-sD3 were added to cleared NP-40 lysate of tachyzoites (10 mM Tris-HCl pH 8.0, 150 mM NaCl, 1 mM EDTA, 0.1% NP-40). Rotated at room temperature for about two hours, washed three times, then immunoblotted; only the target purified

The chains behind the UniProt entries cited, without tags or fusion partners. Residues count along the entry.
UniProt B6KV60, residues 1293-1345: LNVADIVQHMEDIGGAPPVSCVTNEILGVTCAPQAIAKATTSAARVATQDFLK
UniProt B6KAM0, residues 67-569: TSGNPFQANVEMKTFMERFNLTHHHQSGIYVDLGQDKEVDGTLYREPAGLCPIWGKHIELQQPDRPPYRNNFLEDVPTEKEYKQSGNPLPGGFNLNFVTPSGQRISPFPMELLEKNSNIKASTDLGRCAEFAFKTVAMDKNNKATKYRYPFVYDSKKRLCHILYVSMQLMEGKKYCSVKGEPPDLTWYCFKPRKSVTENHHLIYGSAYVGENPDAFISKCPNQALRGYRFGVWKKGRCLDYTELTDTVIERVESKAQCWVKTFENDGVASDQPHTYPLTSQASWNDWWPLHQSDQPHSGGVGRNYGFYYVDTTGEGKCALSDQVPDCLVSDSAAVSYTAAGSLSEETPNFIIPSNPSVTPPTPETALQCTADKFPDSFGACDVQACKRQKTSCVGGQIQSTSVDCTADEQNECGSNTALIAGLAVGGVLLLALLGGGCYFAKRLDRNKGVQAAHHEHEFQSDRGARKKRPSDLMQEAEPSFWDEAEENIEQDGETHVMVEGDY

## generic Apical Membrane Antigen 1 (AMA1) (from UniProt B6KAM0 67-569)
  binding: binds

— publication PMC3734201
